Some entries share one result that the patent states for a list of compounds.
molecular target: T1, endothelial lipase (EL) (Homo sapiens, UniProt Q9Y5X9); assay: Endothelial lipase (EL) enzymatic assay with fluorescent substrate A10070 in DMPG vesicles; assay type: biochemical; conditions: result in words
T1 construct: Conditioned media obtained from HT-1080 cells, which were transformed by RAGE technology (Athersys) to overexpress endogenous EL; endogenous in cells; conditioned medium used as the enzyme source
T1 sequence (Q9Y5X9 21-500): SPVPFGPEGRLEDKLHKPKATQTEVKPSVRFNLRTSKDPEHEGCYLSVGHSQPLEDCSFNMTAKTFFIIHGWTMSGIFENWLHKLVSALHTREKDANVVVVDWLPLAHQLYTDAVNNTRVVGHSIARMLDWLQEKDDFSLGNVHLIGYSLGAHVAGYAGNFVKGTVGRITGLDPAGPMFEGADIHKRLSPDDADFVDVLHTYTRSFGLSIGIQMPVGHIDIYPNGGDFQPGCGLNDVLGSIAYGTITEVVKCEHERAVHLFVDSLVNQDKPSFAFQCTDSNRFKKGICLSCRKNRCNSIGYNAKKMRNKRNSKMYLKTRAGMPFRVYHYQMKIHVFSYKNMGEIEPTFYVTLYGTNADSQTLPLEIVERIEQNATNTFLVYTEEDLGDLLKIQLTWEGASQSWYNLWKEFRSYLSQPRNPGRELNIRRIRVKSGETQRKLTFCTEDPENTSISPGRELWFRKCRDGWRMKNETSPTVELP

Compound	EL inhibitory activity
Cn1ccc(C(=O)NCCc2ccc(C(F)(F)F)cc2)c(O)c1=O [Example 136, 3-hydroxy-1-methyl-2-oxo-N-(4-(trifluoromethyl)phenethyl)-1,2-dihydropyridine-4-carboxamide]	found having EL inhibitory activity
CCC(CCc1ccc(Cl)c(Cl)c1)NC(=O)c1ccn(C)c(=O)c1O (single isomer, unassigned) [Example 116, N-(1-(3,4-dichlorophenyl)pentan-3-yl)-3-hydroxy-1-methyl-2-oxo-1,2-dihydropyridine-4-carboxamide]	found having EL inhibitory activity
Cn1c(-c2cccc3cnccc23)cc(C(=O)NCCCc2ccc(Cl)c(Cl)c2)c(O)c1=O [Example 36, N-(3-(3,4-dichlorophenyl)propyl)-3-hydroxy-6-(isoquinolin-5-yl)-1-methyl-2-oxo-1,2-dihydropyridine-4-carboxamide]	found having EL inhibitory activity
Cn1c(-c2cccc(-c3ccccc3)c2)cc(C(=O)NCCCc2ccc(Cl)c(Cl)c2)c(O)c1=O [Example 23, 6-(biphenyl-3-yl)-N-(3-(3,4-dichlorophenyl)propyl)-3-hydroxy-1-methyl-2-oxo-1,2-dihydropyridine-4-carboxamide]	found having EL inhibitory activity
Cn1c(-c2cccc3ccccc23)cc(C(=O)NCCCc2ccc(Cl)c(Cl)c2)c(O)c1=O [Example 12, N-(3-(3,4-dichlorophenyl)propyl)-3-hydroxy-1-methyl-6-(naphthalen-1-yl)-2-oxo-1,2-dihydropyridine-4-carboxamide]	found having EL inhibitory activity
CS(=O)(=O)c1ccc(Cn2ccc(C(=O)NCCCc3ccc(Cl)c(Cl)c3)c(O)c2=O)cc1 [Example 175, N-(3-(3,4-dichlorophenyl)propyl)-3-hydroxy-1-(4-(methylsulfonyl)benzyl)-2-oxo-1,2-dihydropyridine-4-carboxamide]	found having EL inhibitory activity
O=C(NCCCc1ccc(Cl)c(Cl)c1)c1ccn(Cc2cccc(C(F)(F)F)c2)c(=O)c1O [Example 179, N-(3-(3,4-dichlorophenyl)propyl)-3-hydroxy-2-oxo-1-(3-(trifluoromethyl)benzyl)-1,2-dihydropyridine-4-carboxamide]	found having EL inhibitory activity
Cn1ccc(C(=O)NCCCc2ccc(Cl)c(Cl)c2)c(N)c1=O [Example 192, 3-amino-N-(3-(3,4-dichlorophenyl)propyl)-1-methyl-2-oxo-1,2-dihydropyridine-4-carboxamide]	found having EL inhibitory activity
Cn1c(-c2ccsc2)cc(C(=O)NCCCc2ccc(Cl)c(Cl)c2)c(O)c1=O [Example 15, N-(3-(3,4-dichlorophenyl)propyl)-3-hydroxy-1-methyl-2-oxo-6-(thiophen-3-yl)-1,2-dihydropyridine-4-carboxamide]	found having EL inhibitory activity
COC(=O)c1cccc(OCCCNC(=O)c2ccn(C)c(=O)c2O)c1 [Example 198, methyl 3-(3-(3-hydroxy-1-methyl-2-oxo-1,2-dihydropyridine-4-carboxamido)propoxy)benzoate]	found having EL inhibitory activity
Cn1c(C(F)(F)F)cc(C(=O)NCCCOc2cccc(C(F)(F)F)c2)c(O)c1=O [Example 83, 3-hydroxy-1-methyl-2-oxo-6-(trifluoromethyl)-N-(3-(3-(trifluoromethyl)phenoxy)propyl)-1,2-dihydropyridine-4-carboxamide]	found having EL inhibitory activity
Cn1ccc(C(=O)NCCCOc2cccc(C(F)(F)F)c2)c(O)c1=O [Example 145, 3-hydroxy-1-methyl-2-oxo-N-(3-(3-(trifluoromethyl)phenoxy)propyl)-1,2-dihydropyridine-4-carboxamide]	found having EL inhibitory activity
CC(C)c1cccc(-c2cc(C(=O)NCCCc3ccc(Cl)c(Cl)c3)c(O)c(=O)n2C)c1 [Example 25, N-(3-(3,4-dichlorophenyl)propyl)-3-hydroxy-6-(3-isopropylphenyl)-1-methyl-2-oxo-1,2-dihydropyridine-4-carboxamide]	found having EL inhibitory activity
Cn1c(-c2ccc(Cl)cc2)cc(C(=O)NCCCc2ccc(Cl)c(Cl)c2)c(O)c1=O [Example 13, N-(3-(3,4-dichlorophenyl)propyl)-6-(4-chlorophenyl)-3-hydroxy-1-methyl-2-oxo-1,2-dihydropyridine-4-carboxamide]	found having EL inhibitory activity
Cn1c(-c2cccc3cccnc23)cc(C(=O)NCCCc2ccc(Cl)c(Cl)c2)c(O)c1=O [Example 43, N-(3-(3,4-dichlorophenyl)propyl)-3-hydroxy-1-methyl-2-oxo-6-(quinolin-8-yl)-1,2-dihydropyridine-4-carboxamide]	found having EL inhibitory activity
CC(CCc1ccc(Cl)c(Cl)c1)NC(=O)c1cc(C(F)(F)F)n(C)c(=O)c1O (stereo not shown) [Example 84, N-(4-(3,4-dichlorophenyl)butan-2-yl)-3-hydroxy-1-methyl-2-oxo-6-(trifluoromethyl)-1,2-dihydropyridine-4-carboxamide]	found having EL inhibitory activity
CC(CCc1ccc(Cl)c(Cl)c1)NC(=O)c1ccn(C)c(=O)c1O (single isomer, unassigned) [Example 110, N-(4-(3,4-dichlorophenyl)butan-2-yl)-3-hydroxy-1-methyl-2-oxo-1,2-dihydropyridine-4-carboxamide]	found having EL inhibitory activity
Cn1ccc(C(=O)NCCCOc2c(Cl)cccc2Cl)c(O)c1=O [Example 161, N-(3-(2,6-dichlorophenoxy)propyl)-3-hydroxy-1-methyl-2-oxo-1,2-dihydropyridine-4-carboxamide]	found having EL inhibitory activity
Cn1c(-c2cc(F)cc(C(F)(F)F)c2)cc(C(=O)NCCCOc2ccc(Cl)c(Cl)c2)c(O)c1=O [Example 77, N-(3-(3,4-dichlorophenoxy)propyl)-6-(3-fluoro-5-(trifluoromethyl)phenyl)-3-hydroxy-1-methyl-2-oxo-1,2-dihydropyridine-4-carboxamide]	found having EL inhibitory activity
Cn1c(-c2ccc(Cl)c(C(F)(F)F)c2)cc(C(=O)NCCCc2ccc(Cl)c(Cl)c2)c(O)c1=O [Example 8, 6-(4-chloro-3-(trifluoromethyl)phenyl)-N-(3-(3,4-dichlorophenyl)propyl)-3-hydroxy-1-methyl-2-oxo-1,2-dihydropyridine-4-carboxamide]	found having EL inhibitory activity
Cn1ccc(C(=O)NC(CCc2ccc(Cl)c(Cl)c2)c2ccccc2)c(O)c1=O (single isomer, unassigned) [Example 120, N-(3-(3,4-dichlorophenyl)-1-phenylpropyl)-3-hydroxy-1-methyl-2-oxo-1,2-dihydropyridine-4-carboxamide]	found having EL inhibitory activity
O=C(NCCCc1ccc(Cl)c(Cl)c1)c1ccn(CCc2ccc(F)cc2)c(=O)c1O [Example 172, N-(3-(3,4-dichlorophenyl)propyl)-1-(4-fluorophenethyl)-3-hydroxy-2-oxo-1,2-dihydropyridine-4-carboxamide]	found having EL inhibitory activity
COC(=O)c1ccc(OCCCNC(=O)c2ccn(C)c(=O)c2O)cc1 [Example 199, methyl 4-(3-(3-hydroxy-1-methyl-2-oxo-1,2-dihydropyridine-4-carboxamido)propoxy)benzoate]	found having EL inhibitory activity
Cn1c(-c2ccc(F)c(F)c2)cc(C(=O)NCCCc2ccc(Cl)c(Cl)c2)c(O)c1=O [Example 18, N-(3-(3,4-dichlorophenyl)propyl)-6-(3,4-difluorophenyl)-3-hydroxy-1-methyl-2-oxo-1,2-dihydropyridine-4-carboxamide]	found having EL inhibitory activity
Cn1c(-c2cc(F)cc(C(F)(F)F)c2)cc(C(=O)NCCc2cccc(Cl)c2)c(O)c1=O [Example 57, N-(3-chlorophenethyl)-6-(3-fluoro-5-(trifluoromethyl)phenyl)-3-hydroxy-1-methyl-2-oxo-1,2-dihydropyridine-4-carboxamide]	found having EL inhibitory activity
COC(=O)c1ccc(OCCCNC(=O)c2cc(C(F)(F)F)n(C)c(=O)c2O)cc1 [Example 100, methyl 4-(3-(3-hydroxy-1-methyl-2-oxo-6-(trifluoromethyl)-1,2-dihydropyridine-4-carboxamido)propoxy)benzoate]	found having EL inhibitory activity
Cn1c(-c2cc(F)cc(C(F)(F)F)c2)cc(C(=O)NCCCc2ccc(Cl)c(Cl)c2)c(O)c1=O [Example 7, N-(3-(3,4-dichlorophenyl)propyl)-6-(3-fluoro-5-(trifluoromethyl)phenyl)-3-hydroxy-1-methyl-2-oxo-1,2-dihydropyridine-4-carboxamide]	found having EL inhibitory activity
Cn1c(-c2cc(F)cc(C(F)(F)F)c2)cc(C(=O)NCCCOc2ccc(F)cc2)c(O)c1=O [Example 64, 6-(3-fluoro-5-(trifluoromethyl)phenyl)-N-(3-(4-fluorophenoxy)propyl)-3-hydroxy-1-methyl-2-oxo-1,2-dihydropyridine-4-carboxamide]	found having EL inhibitory activity

— patent US8933235B2, “Pyridinedione carboxamide inhibitors of endothelial lipase” (Bristol-Myers Squibb Company, priority 2011, dated 2015)
